This is an account of results in publication PMC12520541.

By UniProt entry, the sequences of proteins in these tests, tags left out. Residues count along the entry.
UniProt Q9NS69: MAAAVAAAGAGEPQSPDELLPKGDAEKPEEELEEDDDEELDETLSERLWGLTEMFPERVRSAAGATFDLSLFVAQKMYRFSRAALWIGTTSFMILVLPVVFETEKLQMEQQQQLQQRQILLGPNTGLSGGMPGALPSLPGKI
UniProt P20029, residues 20-655: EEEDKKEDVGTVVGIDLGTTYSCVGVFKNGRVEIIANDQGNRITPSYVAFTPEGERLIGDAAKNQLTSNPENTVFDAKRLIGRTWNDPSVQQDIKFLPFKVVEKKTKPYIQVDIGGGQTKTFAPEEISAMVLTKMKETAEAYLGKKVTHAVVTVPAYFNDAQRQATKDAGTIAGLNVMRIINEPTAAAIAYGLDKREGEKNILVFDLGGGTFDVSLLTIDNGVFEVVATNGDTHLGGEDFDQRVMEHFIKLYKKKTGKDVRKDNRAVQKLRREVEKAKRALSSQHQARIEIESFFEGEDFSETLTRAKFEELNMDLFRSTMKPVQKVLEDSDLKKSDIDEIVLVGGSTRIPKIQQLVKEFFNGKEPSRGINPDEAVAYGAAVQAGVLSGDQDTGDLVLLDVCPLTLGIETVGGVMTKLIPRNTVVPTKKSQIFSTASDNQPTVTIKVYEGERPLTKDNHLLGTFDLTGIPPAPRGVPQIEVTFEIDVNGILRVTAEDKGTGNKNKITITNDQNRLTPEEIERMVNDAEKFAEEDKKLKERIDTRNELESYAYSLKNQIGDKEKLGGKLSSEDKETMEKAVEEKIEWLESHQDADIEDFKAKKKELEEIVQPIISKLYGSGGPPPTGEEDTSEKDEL
UniProt P11021, residues 19-654: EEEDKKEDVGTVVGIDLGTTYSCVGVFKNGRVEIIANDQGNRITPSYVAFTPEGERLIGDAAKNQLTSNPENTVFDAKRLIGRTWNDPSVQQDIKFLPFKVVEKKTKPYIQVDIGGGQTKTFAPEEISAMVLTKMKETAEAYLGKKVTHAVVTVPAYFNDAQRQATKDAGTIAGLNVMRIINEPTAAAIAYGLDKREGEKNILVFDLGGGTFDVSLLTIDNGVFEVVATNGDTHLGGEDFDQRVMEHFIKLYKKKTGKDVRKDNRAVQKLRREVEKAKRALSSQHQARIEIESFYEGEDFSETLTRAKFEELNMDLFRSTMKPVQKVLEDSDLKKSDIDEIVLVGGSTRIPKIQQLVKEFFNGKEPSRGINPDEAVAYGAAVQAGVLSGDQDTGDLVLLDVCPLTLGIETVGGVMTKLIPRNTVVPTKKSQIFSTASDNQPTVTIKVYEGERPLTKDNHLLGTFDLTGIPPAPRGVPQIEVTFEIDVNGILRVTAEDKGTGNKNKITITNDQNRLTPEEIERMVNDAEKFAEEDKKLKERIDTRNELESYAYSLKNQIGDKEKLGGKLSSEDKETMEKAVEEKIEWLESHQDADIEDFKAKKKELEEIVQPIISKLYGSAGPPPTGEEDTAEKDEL

Results are given in words; binding and its absence hold for the method and conditions named. Binding seen in cells or lysates may run through a third protein. A yes stands for co-enrichment or nearness to the bait. Other partners may have been found. Sequences can lack the tags named with a protein.

Test [1] addresses T1, Flag-USP13 (ubiquitin-specific peptidase 13), expressed in NCM460 cells (not stated (human or mouse cDNA cloned)) (UniProt Q92995).
T1 sequence: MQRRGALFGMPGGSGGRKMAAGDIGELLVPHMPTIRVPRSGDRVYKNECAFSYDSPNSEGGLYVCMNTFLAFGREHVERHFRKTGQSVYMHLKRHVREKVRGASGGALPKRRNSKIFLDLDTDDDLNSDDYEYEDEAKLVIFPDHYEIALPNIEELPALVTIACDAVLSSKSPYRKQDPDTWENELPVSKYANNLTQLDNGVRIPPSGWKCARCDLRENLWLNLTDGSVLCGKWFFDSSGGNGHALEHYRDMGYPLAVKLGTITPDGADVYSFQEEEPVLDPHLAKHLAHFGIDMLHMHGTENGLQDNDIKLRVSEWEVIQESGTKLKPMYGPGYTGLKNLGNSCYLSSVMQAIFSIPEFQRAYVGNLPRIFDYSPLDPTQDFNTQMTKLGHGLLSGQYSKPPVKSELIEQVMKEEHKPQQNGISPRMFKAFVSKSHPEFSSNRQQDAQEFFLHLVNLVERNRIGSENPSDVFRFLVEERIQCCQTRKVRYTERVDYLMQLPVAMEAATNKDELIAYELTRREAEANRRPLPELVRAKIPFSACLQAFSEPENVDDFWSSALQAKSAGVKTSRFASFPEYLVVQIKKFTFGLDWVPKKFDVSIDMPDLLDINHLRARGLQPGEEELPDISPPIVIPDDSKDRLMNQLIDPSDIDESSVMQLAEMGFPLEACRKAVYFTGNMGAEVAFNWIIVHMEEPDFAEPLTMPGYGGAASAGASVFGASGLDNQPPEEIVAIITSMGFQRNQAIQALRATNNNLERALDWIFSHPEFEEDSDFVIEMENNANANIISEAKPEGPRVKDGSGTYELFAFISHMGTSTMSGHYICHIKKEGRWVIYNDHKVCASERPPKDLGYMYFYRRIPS
The test can be described thus: affinity purification with mass spectrometry; Dataset I: NCM460 cells transfected with Flag-vector or Flag-USP13, LPS (5 µg/mL); anti-Flag and protein G-Sepharose beads on cell lysates; LC-MS/MS of bound proteins.

The target in test [2] is T2, Flag-USP13 (ubiquitin-specific peptidase 13), expressed in MODE-K cells (not stated (human or mouse cDNA cloned)) (UniProt Q5BKP2).
T2 sequence: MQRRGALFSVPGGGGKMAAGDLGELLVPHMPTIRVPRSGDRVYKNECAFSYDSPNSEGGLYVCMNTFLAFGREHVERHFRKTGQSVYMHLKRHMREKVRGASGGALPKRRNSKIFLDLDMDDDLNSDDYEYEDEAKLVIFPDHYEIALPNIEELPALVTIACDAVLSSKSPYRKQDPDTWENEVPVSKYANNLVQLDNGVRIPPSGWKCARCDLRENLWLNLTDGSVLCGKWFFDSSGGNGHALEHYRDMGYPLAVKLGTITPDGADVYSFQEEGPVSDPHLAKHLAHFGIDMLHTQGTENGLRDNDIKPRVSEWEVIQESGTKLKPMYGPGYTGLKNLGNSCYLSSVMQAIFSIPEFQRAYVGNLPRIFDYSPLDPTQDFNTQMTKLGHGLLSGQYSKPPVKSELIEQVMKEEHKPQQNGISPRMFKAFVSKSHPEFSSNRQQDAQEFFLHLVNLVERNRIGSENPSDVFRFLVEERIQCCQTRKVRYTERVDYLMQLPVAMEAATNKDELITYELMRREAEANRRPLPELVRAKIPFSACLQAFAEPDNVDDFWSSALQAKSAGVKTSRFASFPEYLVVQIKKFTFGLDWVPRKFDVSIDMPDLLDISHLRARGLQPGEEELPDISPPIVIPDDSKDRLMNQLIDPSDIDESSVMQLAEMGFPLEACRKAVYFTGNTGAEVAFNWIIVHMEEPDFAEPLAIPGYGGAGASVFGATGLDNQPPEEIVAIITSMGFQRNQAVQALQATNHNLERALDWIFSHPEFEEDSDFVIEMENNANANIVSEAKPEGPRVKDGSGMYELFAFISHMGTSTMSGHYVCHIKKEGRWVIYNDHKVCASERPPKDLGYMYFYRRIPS
The test can be described thus: affinity purification with mass spectrometry; Dataset II: MODE-K cells transfected with Flag-vector or Flag-USP13, LPS (5 µg/mL); anti-Flag and protein G-Sepharose beads on cell lysates; LC-MS/MS of bound proteins.

Consider “TOMM22, endogenous in NCM460 cells (from UniProt Q9NS69 1-142)”, for which the binding result in test [1] is recorded as “binds”. For “glucose-regulated protein 78 (GRP78), endogenous in MODE-K cells (from UniProt P20029 20-655)”, the binding entry in test [2] is on record as “binds”. As for “glucose-regulated protein 78 (GRP78), endogenous in NCM460 cells (from UniProt P11021 19-654)”, the binding entry in test [1] is reported as “binds”.

B1: TOMM22, endogenous in MODE-K cells (protein, UniProt Q9CPQ3 1-142)
chain: MAAAVAAAGAGEPLSPEELLPKAEAEKAEEELEEDDDDELDETLSERLWGLTEMFPERVRSAAGATFDLSLFVAQKMYRFSRAALWIGTTSFMILVLPVVFETEKLQMEQQQQLQQRQILLGPNTGLSGGMPGALPPLPGKM
As for B1, the binding result in test [2] is “binds”.
